Reference: PubChem BioAssay AID248 (DTP/NCI, 2004)
The list is a part of this screen's results and no random one: it is rich in T/C values a quarter to a half above the control, in often repeated tests (any T/C) and in doses without a T/C. Further doses and runs are listed elsewhere. T/C: endpoint of the treated group in % of that of the vehicle group. Some doses have a count of surviving animals in place of a T/C: the source files T/C as zero there, which appears to mark a toxic dose or a test without result, not a measured value. Some doses without a T/C left all or most animals alive at the check, yet need not have been tolerated: survival well below the control is almost never listed, so the zero probably covers shortened survival too. Survivors were counted at the toxicity check, usually on the fifth day, unless a day is given; later deaths do not show. Schedule codes are those of the source, taken here to give the interval after Q, in days (D) or hours (H), and the number of doses after X. Some schedule codes hold Z or #, which are not explained here. Some entries were tested several times; the results are listed from low to high. Where survival is the endpoint, this PubChem deposit counts one and a half times the control or more as active, and values a quarter to a half above the control carry no call in these data; other NCI protocols may use other cut-offs. Some T/C values carry the count of animals alive at the toxicity check (mostly the fifth day); without a count, all were alive then.

System: L1210 leukemia ip in BDF1 mice, survival T/C
Assay: NCI In Vivo Anticancer Drug Screen. Data for tumor model L1210 Leukemia (intraperitoneal) in B6D2F1 (BDF1) mice
Conditions: T/C endpoint: mean survival time, higher T/C = longer survival
[1] = dose: 200.0 mg/kg/injection, schedule: Q01DX009 (ip), vehicle: Klucel (hydroxypropylcellulose) (HPC)
[2] = dose: 400.0 mg/kg/injection, schedule: Q04DX003 (ip), vehicle: saline
[3] = dose: 200.0 mg/kg/injection, schedule: Q01DX001 (ip), vehicle: saline

With `CN(C)c1ccc(/C=N/NC(=O)CNC(=O)c2ccc(Cl)cc2Cl)cc1` the survivor count (dose: 200.0 mg/kg/injection, schedule: Q01DX009 (ip), vehicle: saline with Tween-80) was 3 of 3.

For `N#CCNC(=O)c1ccccc1`, the survivor count (dose: 100.0 mg/kg/injection, schedule: Q01DX009 (ip), vehicle: Klucel (hydroxypropylcellulose) (HPC)) was 0 of 6, the survivor count (dose: 100.0 mg/kg/injection, schedule: Q04DX003 (ip), vehicle: Klucel (hydroxypropylcellulose) (HPC)) was 1 of 6 and 4 of 6 and the survivor count [1] was 0 of 6. For the same compound, the survivor count (dose: 200.0 mg/kg/injection, schedule: Q04DX003 (ip), vehicle: Klucel (hydroxypropylcellulose) (HPC)) was 0 of 6, the survivor count (dose: 400.0 mg/kg/injection, schedule: Q01DX009 (ip), vehicle: Klucel (hydroxypropylcellulose) (HPC)) was 0 of 6 and the survivor count (dose: 400.0 mg/kg/injection, schedule: Q04DX003 (ip), vehicle: Klucel (hydroxypropylcellulose) (HPC)) was 0 of 6.

In the case of `CN=Cc1ccccc1O.CN=Cc1ccccc1O.[Cu+2]`, the survivor count (dose: 75.0 mg/kg/injection, schedule: Q04DX003 (ip), vehicle: acetone) is reported as 2 of 6, the survivor count (dose: 150.0 mg/kg/injection, schedule: Q01DX001 (ip), vehicle: acetone) is reported as 0 of 6 and the survivor count (dose: 300.0 mg/kg/injection, schedule: Q01DX001 (ip), vehicle: acetone) is reported as 0 of 6.

`O=C(Nc1ccc(C2=NCCCN2)cc1)c1ccc(C(=O)Nc2ccc(C3=NCCCN3)cc2)nc1` was tested, and the survivor count (dose: 1.5 mg/kg/injection, schedule: Q01DX Z (ip), vehicle: water) was 0 of 6, the survivor count (dose: 3.0 mg/kg/injection, schedule: Q01DX Z (ip), vehicle: water) was 2 of 6 and the survivor count (dose: 6.0 mg/kg/injection, schedule: Q01DX Z (ip), vehicle: water) was 2 of 6. For the same compound, the survivor count (dose: 12.0 mg/kg/injection, schedule: Q01DX Z (ip), vehicle: water) was 0 of 6, the T/C (dose: 15.0 mg/kg/injection, schedule: Q01DX001 (ip), vehicle: water) was 131 % of control [4 of 6 alive] and the survivor count (dose: 30.0 mg/kg/injection, schedule: Q01DX001 (ip), vehicle: water) was 0 of 6. For the same compound, the survivor count (dose: 60.0 mg/kg/injection, schedule: Q01DX001 (ip), vehicle: water) was 0 of 6.

For `O=C([O-])C(=O)[O-].[Cu+2].[OH2+]CC[N-]CC[OH2+].[OH2+]CC[N-]CC[OH2+]`, the survivor count (dose: 40.0 mg/kg/injection, schedule: Q01DX001 (ip), vehicle: saline) was 2 of 4, the survivor count (dose: 50.0 mg/kg/injection, schedule: Q01DX001 (ip), vehicle: carboxymethylcellulose (CMC)) was 0 of 4 and the survivor count (dose: 80.0 mg/kg/injection, schedule: Q01DX001 (ip), vehicle: saline) was 0 of 4. For the same compound, the survivor count (dose: 100.0 mg/kg/injection, schedule: Q01DX001 (ip), vehicle: carboxymethylcellulose (CMC)) was 0 of 4, the survivor count (dose: 200.0 mg/kg/injection, schedule: Q01DX001 (ip), vehicle: carboxymethylcellulose (CMC)) was 0 of 4 and the survivor count (dose: 400.0 mg/kg/injection, schedule: Q01DX001 (ip), vehicle: carboxymethylcellulose (CMC)) was 0 of 4.

`CC1(COCCOCC2(C)CO2)CO1` (stereo not given) was tested, and the T/C (dose: 266.0 mg/kg/injection, schedule: Q01DX009 (ip), vehicle: saline) was 126 % of control, the T/C (dose: 400.0 mg/kg/injection, schedule: Q01DX009 (ip), vehicle: saline) was 134 % of control and the T/C [2] was 133 % of control.

`[CH3][Sb]1([Cl])[CH2]CC[CH2]1` was tested, and the survivor count (dose: 400.0 mg/kg/injection, schedule: Q04DX003 (ip), vehicle: saline with Tween-80) was 0 of 3 and the survivor count [2] was 0 of 3.

With `CN(C)CCC(C(=O)N(C)C)(c1ccccc1)c1ccccc1` the survivor count (dose: 300.0 mg/kg/injection, schedule: Q01DX001 (ip), vehicle: carboxymethylcellulose (CMC)) was 0 of 6.

With `NC(=S)Nc1ccccc1` the survivor count (dose: 100.0 mg/kg/injection, schedule: Q01DX001 (ip), vehicle: saline) was 0 of 6, the survivor count [3] was 0 of 6 and the survivor count (dose: 400.0 mg/kg/injection, schedule: Q01DX001 (ip), vehicle: saline) was 0 of 6.

With `O=C(N1CCCCC1)C(Cl)(Cl)Cl` the survivor count [1] was 3 of 3 and the survivor count (dose: 400.0 mg/kg/injection, schedule: Q04DX002 (ip), vehicle: Klucel (hydroxypropylcellulose) (HPC)) was 3 of 3.

`O=C(O)C(=S)Cc1cn[nH]n1` was tested, and the survivor count [3] was 4 of 4.
